Measurements reported in article PMC11775523.
Construct, isoform or probe ends are uncertain for at least one entry. At least one result comes from cells or an extract, where the contact may be indirect. Negatives hold for the conditions tested. At least one verdict rests on a figure or table, not on a statement of the authors.

By UniProt entry, the sequences of proteins in these tests, tags left out. Residues count along the entry.
UniProt Q13308, 31-1070: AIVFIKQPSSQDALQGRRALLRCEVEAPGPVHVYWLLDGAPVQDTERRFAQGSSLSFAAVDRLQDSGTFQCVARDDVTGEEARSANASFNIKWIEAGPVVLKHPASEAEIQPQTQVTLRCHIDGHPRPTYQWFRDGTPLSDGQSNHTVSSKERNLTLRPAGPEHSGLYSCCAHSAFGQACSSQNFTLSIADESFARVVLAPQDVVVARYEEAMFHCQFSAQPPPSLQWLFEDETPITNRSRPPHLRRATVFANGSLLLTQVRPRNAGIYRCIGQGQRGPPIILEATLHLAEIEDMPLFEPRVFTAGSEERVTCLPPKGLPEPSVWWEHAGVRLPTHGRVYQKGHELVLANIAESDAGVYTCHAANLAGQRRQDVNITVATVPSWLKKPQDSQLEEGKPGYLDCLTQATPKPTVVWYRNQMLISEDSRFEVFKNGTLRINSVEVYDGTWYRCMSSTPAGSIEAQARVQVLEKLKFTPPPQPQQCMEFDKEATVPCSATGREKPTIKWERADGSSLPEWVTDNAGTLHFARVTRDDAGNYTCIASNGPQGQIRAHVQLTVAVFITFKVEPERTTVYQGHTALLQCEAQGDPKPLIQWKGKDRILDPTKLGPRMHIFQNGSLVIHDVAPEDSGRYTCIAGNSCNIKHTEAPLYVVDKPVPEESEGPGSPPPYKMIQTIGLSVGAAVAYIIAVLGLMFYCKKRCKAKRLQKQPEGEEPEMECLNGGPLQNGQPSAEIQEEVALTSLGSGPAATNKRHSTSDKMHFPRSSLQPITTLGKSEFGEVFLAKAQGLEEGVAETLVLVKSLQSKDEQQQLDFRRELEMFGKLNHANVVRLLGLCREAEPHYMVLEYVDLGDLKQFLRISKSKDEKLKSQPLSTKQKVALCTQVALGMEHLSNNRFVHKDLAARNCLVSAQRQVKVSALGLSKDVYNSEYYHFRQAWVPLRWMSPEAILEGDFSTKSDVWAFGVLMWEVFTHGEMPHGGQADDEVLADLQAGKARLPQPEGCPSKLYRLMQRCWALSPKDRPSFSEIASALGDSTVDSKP

Biological target: PTK7 on HCT116 cells (UniProt Q13308)
Test: confocal microscopy and flow cytometry on cells
Details: Cells: Dulbecco's PBS, 5 mM MgCl2, 4.5 g/L glucose, 0.1 mg/mL yeast tRNA, 1 mg/mL BSA, 4 C or on ice, 30 min, protein on the cell surface

Sequence	binding result (HCT116 cells, control chains 'hardly bind'; Results text: 10 uM into 1 uM), label: 5'-Cy5, single-stranded DNA)	binding result (HCT116 cells, 5 mM MgCl2, Kd only in figure; Results text: 10 uM into 1 uM), folded or branched DNA)
AACCGATAAAATAAGAGCCGAAGCGTAGATTACCAGTGTAT [LSgc8 (control library chain)]	no binding	
ATCTAACTGCTGCGCCGCCGGGAAAATACTGTACGGTTAGA [Sgc8 (S01)]		binds
